Reference: patent US20180127681A1, “GLYCOSYLATED AROMA- AND FRAGRANCE PRECURSORS AND FRAGRANCE PRODUCTS THAT CAN BE ACTIVATED” (Technische University Muenchen, priority 2015, published 2018)

Experiment: Orthonasal sensory triangle test, bread with and without geranyl glucoside
Conditions: 18 panelists, standard yeast dough bread, 100 ppm
Protocol: In order to test the influence of the amount of geraniol released in the baking test on the total aroma of the breads and its impression on the consumer an orthonasalic sensory test was carried out. In a triangle test with untrained panelists breads based on standard yeast dough with and without addition of GG were tested for a perceivable difference.
Bread made of standard yeast dough was tested analogous to the amount of 100 ppm geraniol (corresponds to 1 mg/10 g) used until now in raw bread dough and its difference to a blind sample. As sample dough blanks of 50 g flour each based on standard yeast dough (baking test 3—standard yeast dough) were used (see FIG. 8, picture A4) A blind sample A (flour, salt, sugar, fat, yeast, L-ascorbic acid and water) and a positive control B (additionally geranyl glucoside) were used. Several process steps were carried out according to standardized specifications, separate for each of the two blanks.
For the blind sample A 94.9 g well-mixed flour were weighed into a glass vessel. 1.0 g NaCl, 0.5 g sucrose and 0.5 g palm fat were added and the mixture was put in the kneader. […]
Each panelist carried out two tests following each other, first for the sensory test of the crust, then for the crumb. […] Following the test all singular results were brought together and evaluated statistically. […]

CC(C)=CCC/C(C)=C/CO[C@@H]1O[C@H](CO)[C@@H](O)[C@H](O)[C@H]1O [geranyl glucoside]
correct answers in triangle test (crumb): 12
correct answers in triangle test (crust): 13
